The subject of experiment [1] is HepG2 (human hepatocellular carcinoma). Put plainly: Cytotoxic assay, alamar blue, HepG2. In kind it is cell-based. The note with it: HepG2, 72 h, read-out: IC50 HepG2. In short, it runs like this:
(§1)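 Cells from ATCC, mycoplasma-negative, grown in RPMI 1640 with 10% FBS at 37 °C and 5% CO2. Seeded at 0.7 × 10^5 cells/mL (adherent) or 0.3 × 10^6 cells/mL (suspension), then pre-incubated for 24 h. Test compound in DMSO added for 72 h; doxorubicin was the positive control and DMSO the vehicle control. Resazurin stock (0.312 mg/mL) added 4 h before the end. Absorbance read at 570/595 nm. IC50 taken from non-linear regression of % inhibition versus log concentration.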

Experiment [2] has as its system MCF-7 (human breast adenocarcinoma). Put plainly: Cytotoxic assay, alamar blue, MCF-7. It counts as cell-based. As to conditions: MCF7, 72 h, read-out: IC50 MCF-7. In outline:
as §1

Each structure is given as a SMILES string.

For the compound `COc1cccc2c1C(=O)c1c(O)c3c(c(O)c1C2=O)C[C@@](O)(C(=O)CO)C[C@@H]3O[C@H]1C[C@H](N)[C@H](O)[C@H](C)O1` [Doxorubicin], the results for the IC50 in experiment [1] and in experiment [2] were 200 nM and 1900 nM, respectively.

For orientation: IC50 means the concentration that gives 50% inhibition.

Values taken from PMC6734327 (Heliyon, 2019).
